{"source": "PubChem BioAssay AID1224830 – NIAID | 2016", "test": "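Host factors that control LPS-induced TNF expression in human macrophages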 (primary screen)", "system": "human THP-1 monocytic leukaemia cells, TNF dual-luciferase reporter clone, PMA-differentiated to macrophage-like cells", "knock-down reagent": "siRNA pool against human genes, 50 nM", "duration": "LPS for 4 h, given about 3 days after siRNA transfection", "conditions": "bacterial LPS (TLR4 ligand), 10 ng/ml", "detection": "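Ratio of firefly to renilla light, scaled to the plate median and expressed as a robust z-score per replicate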", "reading the numbers": "TNF reporter robust z-score: higher = stronger TNF reporter response to LPS", "active means": "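a well is active when its z-score exceeds 2.8 or falls below -1.5; control wells carry no call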", "note": "Shown is an unselected part of about 18,000 reagents. Over the whole deposit, about 2,900 (16%) were called active. 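Calls are made per well; low scores hint the gene aids the LPS response, high scores that it dampens it.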 Repeated entries: four replicate wells of each siRNA pool."}
{"gene": "HLA-K (major histocompatibility complex, class I, K (pseudogene))", "TNF reporter robust z-score": -0.61, "Outcome": "inactive"}
{"gene": "HLA-K (major histocompatibility complex, class I, K (pseudogene))", "TNF reporter robust z-score": -0.21, "Outcome": "inactive"}
{"gene": "HLA-K (major histocompatibility complex, class I, K (pseudogene))", "TNF reporter robust z-score": -0.64, "Outcome": "inactive"}
{"gene": "HLA-K (major histocompatibility complex, class I, K (pseudogene))", "TNF reporter robust z-score": -1.95, "Outcome": "active"}
{"gene": "IQCK (IQ motif containing K)", "TNF reporter robust z-score": -1.52, "Outcome": "active"}
{"gene": "IQCK (IQ motif containing K)", "TNF reporter robust z-score": -0.85, "Outcome": "inactive"}
{"gene": "IQCK (IQ motif containing K)", "TNF reporter robust z-score": -1.69, "Outcome": "active"}
{"gene": "IQCK (IQ motif containing K)", "TNF reporter robust z-score": -1.55, "Outcome": "active"}
{"gene": "KIF11 (kinesin family member 11)", "TNF reporter robust z-score": -0.54, "Outcome": "inactive"}
{"gene": "KIF11 (kinesin family member 11)", "TNF reporter robust z-score": -0.66, "Outcome": "inactive"}
{"gene": "KIF11 (kinesin family member 11)", "TNF reporter robust z-score": -1.33, "Outcome": "inactive"}
{"gene": "KIF11 (kinesin family member 11)", "TNF reporter robust z-score": -0.21, "Outcome": "inactive"}

The listing continues:
{"gene": "NTM (neurotrimin)", "TNF reporter robust z-score": 1.25, "Outcome": "inactive"}
{"gene": "NTM (neurotrimin)", "TNF reporter robust z-score": 0.4, "Outcome": "inactive"}
{"gene": "NTM (neurotrimin)", "TNF reporter robust z-score": 2.17, "Outcome": "inactive"}
{"gene": "NTM (neurotrimin)", "TNF reporter robust z-score": -0.23, "Outcome": "inactive"}
{"gene": "IL22RA2 (interleukin 22 receptor subunit alpha 2)", "TNF reporter robust z-score": 1.82, "Outcome": "inactive"}
{"gene": "IL22RA2 (interleukin 22 receptor subunit alpha 2)", "TNF reporter robust z-score": 0.59, "Outcome": "inactive"}
{"gene": "IL22RA2 (interleukin 22 receptor subunit alpha 2)", "TNF reporter robust z-score": 0.82, "Outcome": "inactive"}
{"gene": "IL22RA2 (interleukin 22 receptor subunit alpha 2)", "TNF reporter robust z-score": -0.14, "Outcome": "inactive"}
